Measured data: PubChem BioAssay AID1224826 (NIAID, 2016)
The whole screen tested about 17,000 reagents; below is an unselected part. Over the whole deposit, about 1,110 (6.6%) were called active. 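Active means lowered or raised reporter signal; replicate intensities are raw and not normalised per plate.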 Some reagents were tested in more than one well and are listed for each. Further read-outs or replicates are left out here.

Screen: 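Knock-downs that raise or lower Tnf reporter signal after endotoxin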 (primary screen)
System: RAW264.7 G9 macrophages from mouse bearing reporters for p65 (GFP) and the Tnf promoter (mCherry)
Reagent: siRNA pool against mouse genes, 100 nM
Time to read-out: 16 h of LPS stimulation, after 2 days of siRNA transfection
Treatment: bacterial lipopolysaccharide (Salmonella minnesota R595), 10 ng/ml
Read-out: 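Imaged Tnf reporter mCherry in nuclei, minus background, normalised per plate to the median and expressed as robust z-scores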
Scale: Tnf reporter robust z-score: higher = stronger Tnf promoter reporter signal after LPS
Call rule: 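a well counts as active at a score of -1.3 or below (Tlr4 knock-down control median) or above 3 (raised signal); controls and wells holding fewer than 50 cells are excluded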
Meaning of the calls: active = Tnf reporter clearly lowered or raised; inactive = no clear change in Tnf reporter

| target | Tnf reporter robust z-score | fewer than 50 cells in well | activity call |
| --- | --- | --- | --- |
| Aak1 | – | fewer than 50 cells per well; well left out of calls | inactive |
| Gnb4 | 1.05 | enough cells in well | inactive |
| Gdi1 | -1 | enough cells in well | inactive |
| Map2k6 | 0.79 | enough cells in well | inactive |
| 4931429L15Rik | – | fewer than 50 cells per well; well left out of calls | inactive |
| Cep43 | -0.33 | enough cells in well | inactive |
| Map3k13 | -1.19 | enough cells in well | inactive |
| Slc22a29 | -0.31 | enough cells in well | inactive |
| Rbm47 | 0.87 | enough cells in well | inactive |
| Ca8 | -0.18 | enough cells in well | inactive |
| Rad54l2 | 0.13 | enough cells in well | inactive |
| Sfn | 0.88 | enough cells in well | inactive |
| Paip2 | -1.24 | enough cells in well | inactive |
| Atox1 | – | fewer than 50 cells per well; well left out of calls | inactive |
| Ccr2 | -0.64 | enough cells in well | inactive |
| Krt42 | 0.04 | enough cells in well | inactive |
| Arhgdib | -1.35 | enough cells in well | active |
| Gjc1 | -1.08 | enough cells in well | inactive |
| Nrap | 1.13 | enough cells in well | inactive |
| Surf1 | 0.4 | enough cells in well | inactive |
| Extl2 | 0.57 | enough cells in well | inactive |
| Ifna1 | -0.64 | enough cells in well | inactive |

Hits (from the list above):
| target | Tnf reporter robust z-score | fewer than 50 cells in well | activity call |
| --- | --- | --- | --- |
| Arhgdib | -1.35 | enough cells in well | active |

Additional entries:
| target | Tnf reporter robust z-score | fewer than 50 cells in well | activity call |
| --- | --- | --- | --- |
| Ccdc158 | -0.72 | enough cells in well | inactive |
| Rnase9 | -0.65 | enough cells in well | inactive |
| Gabarapl2 | -0.75 | enough cells in well | inactive |
| Thoc3 | -0.87 | enough cells in well | inactive |
| Stk35 | 0.37 | enough cells in well | inactive |
| Stk35 | 1.94 | enough cells in well | inactive |
| Itgae | 0.08 | enough cells in well | inactive |
| Ugp2 | 1.28 | enough cells in well | inactive |
| Ckmt2 | 5.01 | enough cells in well | active |
| Mt2 | 0.37 | enough cells in well | inactive |
| Tmem106c | -0.66 | enough cells in well | inactive |
| Or8g23 | 0.27 | enough cells in well | inactive |
| Wdr64 | – | fewer than 50 cells per well; well left out of calls | inactive |
| 9030612E09Rik | – | fewer than 50 cells per well; well left out of calls | inactive |
| Pex5l | -1.04 | enough cells in well | inactive |
| Idnk | 1.91 | enough cells in well | inactive |
| Ubxn8 | 0.48 | enough cells in well | inactive |
| Or2d4 | 2.7 | enough cells in well | inactive |
